In publication PMC5098908:
These are yes or no findings as the source states them, for the method shown. In cells and extracts the contact can be indirect. Some entries that bind do so weakly or less than the wild type.

Amino acid sequences for entries named in this document (tags omitted). Residues count along the entry.
UniProt P25445, residues 26-335: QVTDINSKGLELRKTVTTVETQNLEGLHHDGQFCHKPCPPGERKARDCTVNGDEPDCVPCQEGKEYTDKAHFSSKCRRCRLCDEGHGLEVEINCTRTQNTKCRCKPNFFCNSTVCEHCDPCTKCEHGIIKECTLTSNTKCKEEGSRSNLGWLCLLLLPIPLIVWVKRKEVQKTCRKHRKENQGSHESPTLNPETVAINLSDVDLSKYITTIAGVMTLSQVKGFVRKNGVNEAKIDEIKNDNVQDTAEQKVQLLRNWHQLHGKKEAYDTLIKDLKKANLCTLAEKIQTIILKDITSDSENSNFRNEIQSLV

Target: T1, integrin αL (human (endogenous in dHL60)) (UniProt P20701)
T1 sequence: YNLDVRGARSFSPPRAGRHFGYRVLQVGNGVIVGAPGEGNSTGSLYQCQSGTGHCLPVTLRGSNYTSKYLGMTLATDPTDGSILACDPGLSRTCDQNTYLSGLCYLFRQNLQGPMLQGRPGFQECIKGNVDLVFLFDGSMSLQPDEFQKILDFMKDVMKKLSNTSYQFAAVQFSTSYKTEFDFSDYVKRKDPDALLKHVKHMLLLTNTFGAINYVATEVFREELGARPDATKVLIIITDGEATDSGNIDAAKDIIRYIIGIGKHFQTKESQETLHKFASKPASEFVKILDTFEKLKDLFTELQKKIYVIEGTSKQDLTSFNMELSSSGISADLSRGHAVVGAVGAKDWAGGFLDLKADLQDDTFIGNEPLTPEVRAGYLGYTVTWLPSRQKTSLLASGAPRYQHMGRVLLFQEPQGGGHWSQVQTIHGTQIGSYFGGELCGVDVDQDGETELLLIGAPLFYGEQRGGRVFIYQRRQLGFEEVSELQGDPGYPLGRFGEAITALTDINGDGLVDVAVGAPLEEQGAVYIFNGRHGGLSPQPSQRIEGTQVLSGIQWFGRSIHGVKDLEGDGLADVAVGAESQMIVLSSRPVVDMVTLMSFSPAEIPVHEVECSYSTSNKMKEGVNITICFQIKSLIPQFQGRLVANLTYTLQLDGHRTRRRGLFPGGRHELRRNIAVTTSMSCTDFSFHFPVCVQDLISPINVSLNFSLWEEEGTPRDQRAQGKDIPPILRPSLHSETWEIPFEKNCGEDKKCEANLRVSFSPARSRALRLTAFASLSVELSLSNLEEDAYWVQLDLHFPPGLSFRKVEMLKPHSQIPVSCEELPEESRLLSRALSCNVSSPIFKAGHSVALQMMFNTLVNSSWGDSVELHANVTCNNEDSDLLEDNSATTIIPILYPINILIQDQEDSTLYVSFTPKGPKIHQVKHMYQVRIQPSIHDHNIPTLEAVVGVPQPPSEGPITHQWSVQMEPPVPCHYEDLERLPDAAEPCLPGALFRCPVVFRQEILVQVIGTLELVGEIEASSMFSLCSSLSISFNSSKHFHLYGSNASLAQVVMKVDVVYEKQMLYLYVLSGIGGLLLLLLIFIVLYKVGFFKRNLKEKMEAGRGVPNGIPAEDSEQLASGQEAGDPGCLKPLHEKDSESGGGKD
Assay: proximity ligation; dHL60 cells, control or planted in CD95L-precoated chamber for 10 min at 37°C, fixed with 2% PFA, stained with anti-CD11a (EP1285Y) and anti-CD95 (APO-1-1); Duolink kit

- binding: binds
Substance: CD95 (from UniProt P25445 26-335) (receptor)
